Test results from the supplement of paper PMC10849652.
The other results are listed elsewhere or left out.

The chains behind the UniProt entries cited, without tags or fusion partners. Where a name states a change or a piece, a line headed by the entry shows the natural chain unless it says otherwise.
UniProt Q13535: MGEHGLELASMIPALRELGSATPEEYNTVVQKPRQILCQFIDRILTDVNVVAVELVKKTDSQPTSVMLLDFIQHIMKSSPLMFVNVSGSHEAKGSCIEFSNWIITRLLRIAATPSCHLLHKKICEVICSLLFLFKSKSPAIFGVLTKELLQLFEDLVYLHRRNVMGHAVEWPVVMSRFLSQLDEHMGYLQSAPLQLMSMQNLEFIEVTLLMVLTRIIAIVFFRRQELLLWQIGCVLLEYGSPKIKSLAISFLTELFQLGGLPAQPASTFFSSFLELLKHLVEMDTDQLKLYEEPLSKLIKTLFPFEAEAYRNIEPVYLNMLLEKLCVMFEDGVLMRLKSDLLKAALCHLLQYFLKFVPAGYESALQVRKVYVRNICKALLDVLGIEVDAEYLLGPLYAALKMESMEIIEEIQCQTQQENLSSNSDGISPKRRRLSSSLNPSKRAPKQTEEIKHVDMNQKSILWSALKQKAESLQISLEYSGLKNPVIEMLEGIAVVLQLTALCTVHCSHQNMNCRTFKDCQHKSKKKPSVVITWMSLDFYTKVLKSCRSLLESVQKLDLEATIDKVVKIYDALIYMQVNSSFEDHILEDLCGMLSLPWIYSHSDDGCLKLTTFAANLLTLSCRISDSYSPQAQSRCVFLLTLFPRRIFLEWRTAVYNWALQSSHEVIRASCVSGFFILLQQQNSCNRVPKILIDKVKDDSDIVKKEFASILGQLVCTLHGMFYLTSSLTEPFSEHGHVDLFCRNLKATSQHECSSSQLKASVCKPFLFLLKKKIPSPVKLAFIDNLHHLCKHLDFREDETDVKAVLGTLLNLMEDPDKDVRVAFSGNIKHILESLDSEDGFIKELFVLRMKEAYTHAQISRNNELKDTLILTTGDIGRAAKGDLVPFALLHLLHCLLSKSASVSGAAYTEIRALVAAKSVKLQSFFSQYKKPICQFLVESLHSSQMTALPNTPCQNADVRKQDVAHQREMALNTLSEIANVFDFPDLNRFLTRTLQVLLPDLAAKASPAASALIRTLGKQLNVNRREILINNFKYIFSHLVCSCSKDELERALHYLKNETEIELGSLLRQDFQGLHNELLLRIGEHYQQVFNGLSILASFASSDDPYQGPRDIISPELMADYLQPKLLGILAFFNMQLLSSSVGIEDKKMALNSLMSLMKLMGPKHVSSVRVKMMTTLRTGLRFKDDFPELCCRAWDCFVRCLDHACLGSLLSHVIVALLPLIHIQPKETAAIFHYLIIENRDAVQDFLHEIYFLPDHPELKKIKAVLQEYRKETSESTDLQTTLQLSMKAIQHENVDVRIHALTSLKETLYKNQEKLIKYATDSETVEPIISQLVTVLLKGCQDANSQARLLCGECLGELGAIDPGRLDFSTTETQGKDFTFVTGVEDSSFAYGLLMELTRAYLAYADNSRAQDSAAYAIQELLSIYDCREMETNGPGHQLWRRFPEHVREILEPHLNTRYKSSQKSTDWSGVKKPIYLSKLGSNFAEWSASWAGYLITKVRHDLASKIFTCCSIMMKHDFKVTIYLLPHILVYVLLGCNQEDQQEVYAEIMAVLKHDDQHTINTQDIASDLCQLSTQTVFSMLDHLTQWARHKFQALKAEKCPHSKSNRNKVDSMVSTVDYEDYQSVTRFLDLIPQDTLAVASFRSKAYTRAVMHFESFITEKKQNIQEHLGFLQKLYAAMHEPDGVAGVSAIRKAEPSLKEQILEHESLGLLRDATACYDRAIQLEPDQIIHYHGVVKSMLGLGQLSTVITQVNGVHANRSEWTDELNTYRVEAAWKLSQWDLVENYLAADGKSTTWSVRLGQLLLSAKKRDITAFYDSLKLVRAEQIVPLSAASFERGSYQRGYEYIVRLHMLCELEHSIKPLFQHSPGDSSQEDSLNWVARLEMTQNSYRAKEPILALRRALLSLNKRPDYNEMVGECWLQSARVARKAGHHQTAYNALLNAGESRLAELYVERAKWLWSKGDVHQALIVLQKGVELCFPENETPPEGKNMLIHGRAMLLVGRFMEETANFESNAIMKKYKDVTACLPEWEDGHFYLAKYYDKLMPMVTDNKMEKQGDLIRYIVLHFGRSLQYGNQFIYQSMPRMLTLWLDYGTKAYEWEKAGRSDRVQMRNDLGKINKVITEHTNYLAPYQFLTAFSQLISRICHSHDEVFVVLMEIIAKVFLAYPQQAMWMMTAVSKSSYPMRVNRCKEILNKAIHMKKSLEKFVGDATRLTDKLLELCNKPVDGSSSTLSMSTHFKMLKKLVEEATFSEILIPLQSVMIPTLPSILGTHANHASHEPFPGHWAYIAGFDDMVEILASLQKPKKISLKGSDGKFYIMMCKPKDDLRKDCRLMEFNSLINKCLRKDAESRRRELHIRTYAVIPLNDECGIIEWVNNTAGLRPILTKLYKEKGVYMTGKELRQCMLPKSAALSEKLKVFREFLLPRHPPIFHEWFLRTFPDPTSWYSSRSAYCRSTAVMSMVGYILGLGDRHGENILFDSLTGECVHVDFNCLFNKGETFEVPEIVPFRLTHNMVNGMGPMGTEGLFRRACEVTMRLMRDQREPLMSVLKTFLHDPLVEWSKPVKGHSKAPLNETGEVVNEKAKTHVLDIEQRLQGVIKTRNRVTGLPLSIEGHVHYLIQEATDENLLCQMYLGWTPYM
UniProt Q15059, whole entry, looked up: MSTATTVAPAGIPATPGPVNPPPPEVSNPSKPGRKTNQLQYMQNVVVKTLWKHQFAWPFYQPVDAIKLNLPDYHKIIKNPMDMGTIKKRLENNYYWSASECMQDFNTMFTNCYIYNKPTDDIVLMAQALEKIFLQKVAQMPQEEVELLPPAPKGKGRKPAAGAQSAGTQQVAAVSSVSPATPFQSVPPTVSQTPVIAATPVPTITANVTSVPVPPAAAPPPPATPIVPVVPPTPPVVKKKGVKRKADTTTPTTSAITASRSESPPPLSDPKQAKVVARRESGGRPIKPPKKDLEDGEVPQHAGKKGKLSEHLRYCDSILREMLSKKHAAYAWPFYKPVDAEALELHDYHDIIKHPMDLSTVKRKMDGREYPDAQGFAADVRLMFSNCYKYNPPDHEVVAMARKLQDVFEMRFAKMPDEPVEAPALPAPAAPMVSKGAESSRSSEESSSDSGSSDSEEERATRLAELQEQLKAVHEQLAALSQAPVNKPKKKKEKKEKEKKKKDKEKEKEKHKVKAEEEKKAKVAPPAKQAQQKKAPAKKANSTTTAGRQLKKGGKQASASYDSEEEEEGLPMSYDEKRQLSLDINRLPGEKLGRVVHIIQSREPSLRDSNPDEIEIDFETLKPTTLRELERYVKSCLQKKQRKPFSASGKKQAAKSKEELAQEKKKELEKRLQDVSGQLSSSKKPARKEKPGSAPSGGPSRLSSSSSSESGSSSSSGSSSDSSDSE
UniProt P61769, whole entry, looked up: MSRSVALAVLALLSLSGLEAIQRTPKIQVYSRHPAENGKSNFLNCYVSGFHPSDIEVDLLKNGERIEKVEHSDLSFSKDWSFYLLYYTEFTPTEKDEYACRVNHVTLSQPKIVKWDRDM
UniProt P53004: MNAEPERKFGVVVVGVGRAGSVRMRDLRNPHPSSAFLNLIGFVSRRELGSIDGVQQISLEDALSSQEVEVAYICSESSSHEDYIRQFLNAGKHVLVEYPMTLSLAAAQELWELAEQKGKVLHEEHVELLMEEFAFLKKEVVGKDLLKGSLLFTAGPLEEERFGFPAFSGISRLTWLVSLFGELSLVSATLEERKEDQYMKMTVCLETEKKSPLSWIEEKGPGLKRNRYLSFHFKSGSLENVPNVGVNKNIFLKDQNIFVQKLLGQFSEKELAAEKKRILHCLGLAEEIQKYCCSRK
UniProt P07738: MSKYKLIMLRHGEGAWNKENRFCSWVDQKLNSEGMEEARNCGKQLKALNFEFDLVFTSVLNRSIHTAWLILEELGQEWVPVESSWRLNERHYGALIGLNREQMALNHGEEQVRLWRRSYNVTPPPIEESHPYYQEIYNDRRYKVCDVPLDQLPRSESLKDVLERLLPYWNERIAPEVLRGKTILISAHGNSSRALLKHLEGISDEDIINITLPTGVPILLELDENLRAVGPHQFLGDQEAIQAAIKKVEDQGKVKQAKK
UniProt Q6QNY0: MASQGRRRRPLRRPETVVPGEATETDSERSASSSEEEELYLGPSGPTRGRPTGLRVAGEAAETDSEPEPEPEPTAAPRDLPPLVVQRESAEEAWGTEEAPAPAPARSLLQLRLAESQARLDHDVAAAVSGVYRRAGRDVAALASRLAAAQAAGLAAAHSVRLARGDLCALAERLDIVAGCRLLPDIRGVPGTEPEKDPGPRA
UniProt Q6UW56: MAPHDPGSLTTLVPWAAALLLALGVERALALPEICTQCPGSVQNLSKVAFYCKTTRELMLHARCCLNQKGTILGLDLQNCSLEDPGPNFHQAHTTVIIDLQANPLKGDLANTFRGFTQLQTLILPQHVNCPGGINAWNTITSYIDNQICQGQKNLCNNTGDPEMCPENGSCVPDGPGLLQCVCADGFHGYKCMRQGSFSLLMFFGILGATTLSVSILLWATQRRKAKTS
UniProt Q9H3K6: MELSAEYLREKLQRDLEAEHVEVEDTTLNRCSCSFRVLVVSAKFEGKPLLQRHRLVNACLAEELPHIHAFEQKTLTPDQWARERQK
UniProt O43505: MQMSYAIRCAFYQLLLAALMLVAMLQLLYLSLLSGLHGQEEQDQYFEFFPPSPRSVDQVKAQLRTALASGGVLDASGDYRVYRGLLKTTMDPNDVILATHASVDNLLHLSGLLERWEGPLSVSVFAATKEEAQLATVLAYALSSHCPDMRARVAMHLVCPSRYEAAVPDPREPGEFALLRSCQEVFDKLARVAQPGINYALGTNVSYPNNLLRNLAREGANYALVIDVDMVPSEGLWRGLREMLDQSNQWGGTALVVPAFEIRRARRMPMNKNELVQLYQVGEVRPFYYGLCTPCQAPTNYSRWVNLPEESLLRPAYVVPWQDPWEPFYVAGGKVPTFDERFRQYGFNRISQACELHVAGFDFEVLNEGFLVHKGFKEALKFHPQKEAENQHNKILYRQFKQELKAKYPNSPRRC
UniProt Q8TDN6: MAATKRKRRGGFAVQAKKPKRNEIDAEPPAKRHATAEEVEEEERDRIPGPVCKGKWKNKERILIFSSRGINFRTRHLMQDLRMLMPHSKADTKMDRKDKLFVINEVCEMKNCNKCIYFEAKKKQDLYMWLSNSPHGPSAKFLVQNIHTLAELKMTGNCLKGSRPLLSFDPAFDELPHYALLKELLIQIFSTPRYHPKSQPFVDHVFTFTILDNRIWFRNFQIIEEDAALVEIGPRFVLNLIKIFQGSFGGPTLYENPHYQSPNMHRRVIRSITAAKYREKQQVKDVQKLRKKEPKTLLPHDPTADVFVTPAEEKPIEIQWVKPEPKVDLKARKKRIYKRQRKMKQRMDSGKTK
UniProt O95999: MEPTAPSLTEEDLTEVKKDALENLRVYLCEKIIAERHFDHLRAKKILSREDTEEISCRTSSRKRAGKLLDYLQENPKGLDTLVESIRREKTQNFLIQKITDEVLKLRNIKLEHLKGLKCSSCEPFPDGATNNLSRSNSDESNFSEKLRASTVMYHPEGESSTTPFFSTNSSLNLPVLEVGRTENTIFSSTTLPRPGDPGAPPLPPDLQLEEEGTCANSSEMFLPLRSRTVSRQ
UniProt Q14137: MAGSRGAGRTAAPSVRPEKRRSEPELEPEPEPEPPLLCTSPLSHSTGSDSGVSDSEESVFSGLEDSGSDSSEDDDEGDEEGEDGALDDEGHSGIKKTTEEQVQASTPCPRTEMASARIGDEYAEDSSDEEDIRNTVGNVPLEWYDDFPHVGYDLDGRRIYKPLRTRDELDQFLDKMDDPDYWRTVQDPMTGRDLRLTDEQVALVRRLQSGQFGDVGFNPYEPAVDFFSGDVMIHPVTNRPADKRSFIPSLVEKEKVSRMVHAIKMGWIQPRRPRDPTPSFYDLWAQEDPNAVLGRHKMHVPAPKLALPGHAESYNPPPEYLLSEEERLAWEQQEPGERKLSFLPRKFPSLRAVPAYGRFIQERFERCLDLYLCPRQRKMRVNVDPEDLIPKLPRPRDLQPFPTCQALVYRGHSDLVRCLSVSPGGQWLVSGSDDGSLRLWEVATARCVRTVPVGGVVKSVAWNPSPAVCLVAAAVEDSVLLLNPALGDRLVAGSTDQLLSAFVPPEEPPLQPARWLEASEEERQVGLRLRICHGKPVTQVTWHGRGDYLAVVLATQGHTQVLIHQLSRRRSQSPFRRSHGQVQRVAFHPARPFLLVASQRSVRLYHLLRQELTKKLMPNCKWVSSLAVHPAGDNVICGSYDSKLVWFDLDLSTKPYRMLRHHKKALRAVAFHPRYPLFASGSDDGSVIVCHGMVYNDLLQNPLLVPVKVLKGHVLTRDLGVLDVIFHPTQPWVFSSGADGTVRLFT
UniProt P55957: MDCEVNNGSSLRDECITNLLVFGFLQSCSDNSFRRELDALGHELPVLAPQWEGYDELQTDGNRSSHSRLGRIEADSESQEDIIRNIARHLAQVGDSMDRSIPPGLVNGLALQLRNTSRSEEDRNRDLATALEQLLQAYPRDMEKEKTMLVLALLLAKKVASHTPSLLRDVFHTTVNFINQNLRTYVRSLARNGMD

Compound: Cn1cc(-c2ccc3c(c2)CCN3C(=O)Cc2cccc(C(F)(F)F)c2)c2c(N)ncnc21
Assay: log2 fold change, soluble protein after heating vs DMSO (PISA); higher = thermal stabilisation; K562 cells, 10 uM, 30 min; active = over 0.2 and 3.5 SD of the protein, either way, in both replicates (recomputed)
Summary of the method: (§1)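 Quantification of soluble protein used TMTpro 16plex LC-MS/MS, with channel sums equalised. Samples were the supernatant after 21,000xg for 90 min of pooled aliquots from K562 cells (2×10^6 cells/mL) treated with 10 μM compound for 30 min, heated for 3 min over 48°C-58°C, and extracted in PBS with 0.5% NP-40 at 4°C. Values, from duplicates, describe thermal stability against control samples on a log2 fold-change scale.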

Target	log2 fold change
ATR (UniProt Q13535)	inactive: 0.012
BRD3 (UniProt Q15059)	inactive: -0.05
BRIP1 (UniProt Q9BX63)	inactive: 0.02
B2M (UniProt P61769)	inactive: 0.038
BAG4 (UniProt O95429)	inactive: 0.043
ATRIP (UniProt Q8WXE1)	inactive: -0.035
BAG1 (UniProt Q99933)	inactive: -0.053
BLOC1S4 (UniProt Q9NUP1)	inactive: 0.016
BAX isoform 2 (UniProt Q07812)	inactive: 0.068
ATRN (UniProt O75882)	inactive: 0.097
BCAP31 isoform 2 (UniProt P51572)	inactive: -0.002
BLVRA (UniProt P53004)	inactive: 0.081
BPGM (UniProt P07738)	inactive: 0.032
BLOC1S3 (UniProt Q6QNY0)	inactive: 0.017
ATRAID isoform 3 (UniProt Q6UW56)	inactive: 0.056
ATXN2L (UniProt Q8WWM7)	inactive: -0.026
BOLA2 (UniProt Q9H3K6)	inactive: 0.061

Target	log2 fold change
B4GAT1 (UniProt O43505)	inactive: -0.129
BABAM2 (UniProt Q9NXR7)	inactive: 0.015
BRIX1 (UniProt Q8TDN6)	inactive: -0.494
BCL10 (UniProt O95999)	inactive: 0.023
BROX (UniProt Q5VW32)	inactive: -0.002
BBC3 (UniProt Q9BXH1)	inactive: 0.085
BCL2L12 (UniProt Q9HB09)	inactive: 0.033
BCAT2 (UniProt O15382)	inactive: -0.005
BCKDHB (UniProt P21953)	inactive: 0.137
BCAS2 (UniProt O75934)	inactive: -0.014
BOP1 (UniProt Q14137)	inactive: -0.038
BAK1 (UniProt Q16611)	inactive: 0.06
BID isoform 2 (UniProt P55957)	inactive: 0.038
BAG2 (UniProt O95816)	inactive: -0.137
BCAP29 isoform 2 (UniProt Q9UHQ4)	inactive: 0
B3GNTL1 (UniProt Q67FW5)	inactive: 0.004

Compound: Cn1cc(-c2ccc3nnc(C(F)(F)c4ccc5ncccc5c4)n3n2)cn1
Assay: as above
Summary of the method: as §1

Target	log2 fold change
ATR (UniProt Q13535)	inactive: 0.039
BRD3 (UniProt Q15059)	inactive: 0.086
BRIP1 (UniProt Q9BX63)	inactive: -0.197
B2M (UniProt P61769)	inactive: 0.031
BAG4 (UniProt O95429)	inactive: -0.055
ATRIP (UniProt Q8WXE1)	inactive: 0.158
BAG1 (UniProt Q99933)	inactive: 0.013
BLOC1S4 (UniProt Q9NUP1)	inactive: 0.109
BAX isoform 2 (UniProt Q07812)	inactive: 0.044
BCAP31 isoform 2 (UniProt P51572)	inactive: -0.017
BLVRA (UniProt P53004)	inactive: 0.025
BPGM (UniProt P07738)	inactive: -0.128
BLOC1S3 (UniProt Q6QNY0)	inactive: 0.078
ATRAID isoform 3 (UniProt Q6UW56)	inactive: -0.004
ATXN2L (UniProt Q8WWM7)	inactive: 0.005
BOLA2 (UniProt Q9H3K6)	inactive: 0.079

Target	log2 fold change
B4GAT1 (UniProt O43505)	inactive: -0.011
BABAM2 (UniProt Q9NXR7)	inactive: -0.01
BRIX1 (UniProt Q8TDN6)	inactive: -0.138
BCL10 (UniProt O95999)	inactive: -0.011
BROX (UniProt Q5VW32)	inactive: 0.023
BBC3 (UniProt Q9BXH1)	inactive: 0.11
BCL2L12 (UniProt Q9HB09)	inactive: 0.047
BCAT2 (UniProt O15382)	inactive: 0.007
BCKDHB (UniProt P21953)	inactive: 0.032
BCAS2 (UniProt O75934)	inactive: 0
BOP1 (UniProt Q14137)	inactive: -0.087
BID isoform 2 (UniProt P55957)	inactive: 0.007
BAG2 (UniProt O95816)	inactive: -0.143
BCAP29 isoform 2 (UniProt Q9UHQ4)	inactive: 0.04
B3GNTL1 (UniProt Q67FW5)	inactive: -0.231

Compound: Cn1cncc1[C@@](N)(c1ccc(Cl)cc1)c1ccc2c(c1)c(-c1cccc(Cl)c1)cc(=O)n2C [tipifarnib]
Assay: as above
Summary of the method: as §1

Target	log2 fold change
ATR (UniProt Q13535)	inactive: -0.022
BRD3 (UniProt Q15059)	inactive: -0.126
BRIP1 (UniProt Q9BX63)	inactive: -0.101
B2M (UniProt P61769)	inactive: -0.07
BAG4 (UniProt O95429)	inactive: 0.019
ATRIP (UniProt Q8WXE1)	inactive: -0.025
BAG1 (UniProt Q99933)	inactive: -0.068
BLOC1S4 (UniProt Q9NUP1)	inactive: -0.017
BAX isoform 2 (UniProt Q07812)	inactive: 0.017
ATRN (UniProt O75882)	inactive: 0.048
BCAP31 isoform 2 (UniProt P51572)	inactive: 0.071
BLVRA (UniProt P53004)	inactive: -0.098
BPGM (UniProt P07738)	inactive: 0.022
BLOC1S3 (UniProt Q6QNY0)	inactive: -0.103
ATRAID isoform 3 (UniProt Q6UW56)	inactive: 0.199
ATXN2L (UniProt Q8WWM7)	inactive: 0.015
BOLA2 (UniProt Q9H3K6)	inactive: -0.162

Target	log2 fold change
B4GAT1 (UniProt O43505)	inactive: -0.085
BABAM2 (UniProt Q9NXR7)	inactive: 0.071
BRIX1 (UniProt Q8TDN6)	inactive: 0.158
BCL10 (UniProt O95999)	inactive: -0.05
BROX (UniProt Q5VW32)	inactive: -0.098
BBC3 (UniProt Q9BXH1)	inactive: 0.049
BCL2L12 (UniProt Q9HB09)	inactive: -0.015
BCAT2 (UniProt O15382)	inactive: 0.029
BCKDHB (UniProt P21953)	inactive: 0.012
BCAS2 (UniProt O75934)	inactive: 0.076
BOP1 (UniProt Q14137)	inactive: 0.114
BAK1 (UniProt Q16611)	inactive: -0.114
BID isoform 2 (UniProt P55957)	inactive: -0.079
BAG2 (UniProt O95816)	inactive: 0
BCAP29 isoform 2 (UniProt Q9UHQ4)	inactive: 0.058
B3GNTL1 (UniProt Q67FW5)	inactive: -0.082
